Test results from patent US5723494A, “Derivatives of glutamic and aspartic acids, a method of preparing them, and their use as drugs for enhancing memory and learning” (priority 1993, dated 1998).
The name of at least one read-out is uncertain.

Assay: Memory-enhancement activity in the passive avoidance test in the rat
Format: in vivo, rat (male Wistar)
Details: Piracetam, IP, footnote "Doses: 310-30 mg/kg"
Experimental: 2) Memory-enhancement activity in the "passive avoidance" test in the rat
A "passive avoidance" model was used, which required a single "step-through" situation and a retest of the "retention memory" 72 h after the training.
Male Wistar rats which weighed about 200 g and had not fasted, were used. The test consisted of evaluating the degree of memory of an animal after it had been trained as follows.
The equipment used was a shuttle box modified thus: one compartment was lined with black card including the cover, and a 60 W lamp was disposed above the other, spaced from the grid floor by about 40 cm. The two compartments were divided by an automatic guillotine-like door. Each animal was placed in the compartment in the light with the guillotine-likedoor open. From this moment, the time taken by the rat to go into the compartment lined with black card (the dark compartment) (the step-throughlatency=STL) was measured. The animals which took more than 30 sec to go into the dark were discarded. Once they had gone into the dark, the door was lowered automatically and a=0.1 mA shock lasting 5 sec (a foot shock=FS) started. After 10 sec, the animal was removed from the shuttle box.
Upon completion, the animals were selected randomly in homogeneous groups and treated with the products.
The retest to determine memory was made after 72 hours. The products were administered chronically in the preselected manner twice per day and the last treatment 30 min before the retest (6 treatments altogether).
The memory-retention test (the retest) consisted of placing each animal, treated 30 min beforehand with a physiological solution or with the product, in the compartment which was not lined with black card for 30 sec.
The results are expressed as the percentage variation of the STL (in seconds) of the groups treated in comparison with the control group by means of this formula: [formula]

Measured: % variation vs controls (FS) in step through latency

NC(=O)CN1CCCC1=O [Piracetam, reference compound]
0%: first dose column | second dose column | third dose column
